The text below walks through data of publication PMC7205388, “Per-6-Thiolated Cyclodextrins: A Novel Type of Permeation Enhancing Excipients for BCS Class IV Drugs” (ACS Applied Materials & Interfaces, 2020).

The data set can be described thus: In vivo oral bioavailability / pharmacokinetics of FUR in rats. As to conditions: rat. Set-up: species or system Sprague-Dawley rats.
Setting [1] is: Sprague-Dawley, plasma, po, 30 mg/kg.

As for `NS(=O)(=O)c1cc(C(=O)O)c(NCc2ccco2)cc1Cl` [FUR, furosemide], the exposure (AUC) (as a rule, concentration integrated over time) (Sprague-Dawley, plasma, iv, 30 mg/kg) amounted to 801 µg·h/mL. Under setting [1], the Cmax (commonly the peak of the concentration-time curve) amounted to 3870 ng/mL and the Tmax (in general, the time from dosing to the highest level) stood at 2 h. For the same molecule, under “Sprague-Dawley, plasma, po, 30 mg/kg, read-out: AUC0–24”, the AUC(0-t) was 32.1 µg·h/mL. Moreover, under “oral, 30 mg FUR/kg”, the Cl/F is 0.75 (mg/kg)/(μg/mL)/h and the Vd/F was 9.11 (mg/kg)/(μg/mL).
